## Results of single-concentration screens

Chains of the proteins cited; added tags and fusions are not shown.
UniProt P9WFT3, whole entry: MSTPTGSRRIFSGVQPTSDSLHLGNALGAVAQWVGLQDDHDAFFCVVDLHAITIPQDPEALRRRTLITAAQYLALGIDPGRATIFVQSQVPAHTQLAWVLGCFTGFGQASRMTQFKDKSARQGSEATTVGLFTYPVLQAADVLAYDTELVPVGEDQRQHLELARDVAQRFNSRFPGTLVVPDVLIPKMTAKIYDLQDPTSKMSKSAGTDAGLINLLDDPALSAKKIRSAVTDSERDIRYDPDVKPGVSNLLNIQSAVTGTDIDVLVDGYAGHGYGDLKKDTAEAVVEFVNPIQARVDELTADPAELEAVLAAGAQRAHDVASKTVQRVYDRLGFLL

Measurements from “University of Dundee, Small-Polar-MMV Screening Library” (2021), ChEMBL document CHEMBL3988442.

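Tryptophan-tRNA ligase, Mycobacterium tuberculosis (UniProt P9WFT3). Enzyme assay of tryptophanyl-tRNA synthetase; the read-out is not stated. Concentration: 10 µM. Direction is not recorded; retested compounds ran higher, which suggests that high means inhibition. Of about 65,000 compounds tested this way, about 64 (0.098%) reached 50% or more in at least one test.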

Each number is a percent effect as filed.
How 0% and 100% were set is not recorded. Most values in the screen are low, and negative values occur.
The compounds are a random part of those screened.

structure,Percent Effect
COc1ccc(OC)c(S(=O)(=O)NC(=O)C(C)OC)c1 (configuration not stated),4.844
CCCSCC(=O)N1C[C@H]2CC[C@@H]1CN(Cc1cccnc1)C2,1.308
CCn1cnnc1CNC(=O)N(C)Cc1c(F)cccc1Cl,1.168
CCc1[nH]ncc1C(=O)N1CCCC(n2cc(C)cn2)C1 (configuration not stated),8.566
CCc1c(C)[nH]c(C(C)(C)N)nc1=O,-0.4955
COC(CNC(=O)c1ccc(NC(C)=O)cc1)c1cccc(Cl)c1 (configuration not stated),-2.385
Cc1nn(C(C)C)c2cnn(CC(=O)N3CCSCC3)c12,-3.876
O=C(c1cccnc1O)N1CCC(COc2ccccc2)CC1,-0.6192
CCCN(Cc1cccnc1)C(=O)C1CCNC1 (configuration not stated),-7.352
CC(C)C(=O)N1CC[C@@H]2CN(Cc3ccncc3)S(=O)(=O)[C@@H]2CC1,-5.99
Cc1noc(C)c1CN1CC[C@H]2C[C@@H](c3nccs3)O[C@@H]2C1,0.7846
CC(C)c1ccc(CS(=O)(=O)Cc2nc(N)nc(N(C)C)n2)cc1,-4.678
CCNC(=O)[C@@H]1C[C@H](NC(=O)c2ccc(C)s2)CN1Cc1ccc(C)o1,1.615
Cc1cc2cccc(C(=O)N3CC[C@](C)(O)[C@H](C)C3)c2o1,-7.525
Cc1cc(C)n(CC2CN(CCOc3ccc(C#N)cc3)CCO2)n1 (configuration not stated),1.945
CC(C)c1nc(C2CCCN2Cc2ccon2)no1 (configuration not stated),0.2921
CC(C)N1CC2(CCCN(c3ccccn3)C2)CCC1=O (configuration not stated),2.441
CNc1cc(C)nc(N2C[C@H](C3CC3)[C@@H](N)C2)n1,-2.018
CC/N=c1\nc(NCC)nc2n1C(O)(Nc1cc(Cl)ccc1Cl)CS2 (configuration not stated),-3.605
Cc1nn(C)c(C)c1C1COCCN1C(=O)CSC(C)(C)C (configuration not stated),-1.232
Cc1cccc(NC(=O)[C@@H]2CCCN2Cc2nnc(C(C)C)n2C)n1,5.286
Cc1ccc(F)c(NCc2ccc(C(=O)N(C)C)[nH]2)c1,-6.648
Cc1nc(-c2ccccc2)sc1CNC1CCc2ncnn2C1 (configuration not stated),1.558
Cn1ncc2c(NCCOc3ccc(F)cc3)nc(C3CCCC3)nc21,3.493
COCc1nc(CN2CCOC(CN(C)c3cccnn3)C2)cs1 (configuration not stated),3.011
CC(Nc1nc(-c2ccncc2)nc2c1CCNC2)c1ccccc1 (configuration not stated),3.173
COC(=O)CNC(=O)c1sc(-c2ccc(Cl)s2)nc1C,-2.225
O=S(=O)(Nc1cnc(N2CCCC2)nc1)c1ccc(C(F)(F)F)cc1,-0.3943
CNC(=O)NC(=O)CCN1CCN(c2ccc(C(=O)OC)cc2)CC1C (configuration not stated),-5.796
CNc1nc(N2C[C@H](NC(=O)CCOC)[C@@H](C3CC3)C2)nc2c1CCC2,2.166
O=S(=O)(NCc1ccccc1Cn1cncn1)N1CCCCCC1,-1.089
CCOCCOc1ccc(S(=O)(=O)N2CCc3c(nc[nH]c3=O)C2)cc1,-0.000007
c1cc(CN2Cc3nccn3CC(Cn3cncn3)C2)ccn1 (configuration not stated),6.773
Cc1cc(C(=O)NCC(c2ccsc2)N(C)C)no1 (configuration not stated),-6.908
CNC(=O)Cn1ccc2ccc(NC(=O)NC(C)C(C)C)cc21 (configuration not stated),-1.573
C1CN(CC2CC2)C(COCC2CC2)c2nnn(CC3CC3)c21 (configuration not stated),0.3487
CCc1ccc2c(c1)C(CCNC(=O)c1sccc1C)C(=O)N2 (configuration not stated),-1.975
COC(=O)NCCC(=O)NC(c1ccc(Cl)cc1)C(F)(F)F (configuration not stated),5.811
O=C(O)CSc1nnc(-c2ccco2)n1-c1ccccc1C(F)(F)F,4.094
COc1cc(CNC(=O)c2c(C)noc2C)ccn1,6.842
CC(=O)N1CCC(Nc2ccc(Br)cc2C#N)C1 (configuration not stated),4.782
Cc1nccc([C@@H]2C[C@H]3CN(S(=O)(=O)c4ccccc4)C[C@H]3O2)n1,-1.361
CC1(C)CNC(=O)c2nc(-c3ccccc3)[nH]c2C1,-3.649
Cc1cnn(CC2CCCCN2C(=O)CN(C)C2CC2)c1 (configuration not stated),-5.75
CS(=O)(=O)Cc1cccc(C(=O)N2CCCC(n3cccn3)C2)c1 (configuration not stated),-2.895
O=S1(=O)N=C(CSCc2ccccc2)Nc2ccccc21,0.5698
CC(c1ccc(F)cc1F)N1CCN(Cc2nccn2C)CC1 (configuration not stated),-0.6489
Cc1csc(C(Cc2ccsc2)NC(=O)c2cc(=O)n(C)c(=O)n2C)n1 (configuration not stated),-6.948
Cc1noc2ncc(C(=O)NCC3CCCO3)cc12 (configuration not stated),-2.704
COc1ccc(NC(=O)c2cnc(C3CCN(C)CC3)nc2C)cc1,5.157
Cc1c(NCC(C)(C)C)cccc1C(=O)NCc1ncnn1C,-1.687
COc1ccc(C(=O)NCCN(C)C)c(I)c1,2.75
O=C1CCCN1Cc1nnc2n1CCN(Cc1ccoc1)CC2,0.9924
c1cncc(OCc2nc(C3CC3)nn2-c2ccc3c(c2)OCCO3)c1,-1.256
O=C(C1CC1)N1CCC(Oc2ccccc2Cl)CC1,7.158
COC(=O)c1sccc1CN1CCN(C(=O)c2ccc(C)o2)CC1,-6.861
COc1ccccc1CC(=O)N(CCN1CCOCC1)Cc1ccco1,-1.812
O=C(COC(=O)Cc1cccs1)NCc1cccc(NC(=O)C2CC2)c1,4.386
COc1cc(N2CCCC3(CCN(c4cncnc4)C3=O)C2)ncn1 (configuration not stated),-4.497
Cc1ccc(C(=O)NC2CCCN(CC(N)=O)C2)c(=O)[nH]1 (configuration not stated),-4.088
COC(=O)CCN1CCC(C(=O)c2cc(F)ccc2F)CC1,-0.7524
CCc1ccc(NC(=O)Nc2c(O)oc3ccccc3c2=O)cc1,1.018
CSCCCN1C[C@H](NC(=O)c2cc(C3CC3)on2)[C@@H](C2CC2)C1,-2.074
COc1ccc(CN2CCC3(CC2)CCN(CC(C)C)C3=O)cc1,0.07633
Cc1noc(CNC(=O)CN(C)c2nc3ccccc3s2)n1,2.083
Cc1nnc(SCCNC(=O)CC2CCc3ccccc32)s1 (configuration not stated),-1.638
CS(=O)(=O)c1ccc(OCCNCc2cccc(Cl)c2)cc1,-2.694
CCc1cnc(CNC(=O)NC2CC(C)(C)OC2(C)C)s1 (configuration not stated),9.883
CCC(=O)NCC(Cc1cccc(F)c1)n1cccc1 (configuration not stated),-4.179
Cc1nc(-c2nnc[nH]2)sc1C(=O)N1CCCC1c1cccs1 (configuration not stated),-3.61
Cc1ncsc1C(=O)NCCn1nc2ccccn2c1=O,-3.596
Cc1cc(CN2CC[C@H]3C[C@H](C(=O)N(C)C)O[C@@H]3C2)no1,0.09588
CCN(CC(=O)N(C)C)C(=O)c1cc(-c2cccc(Cl)c2)no1,8.06
CS(=O)(=O)N1CCCCC1CCc1ccc(O)cc1 (configuration not stated),2.972
O=C1CCCN1CCCC(=O)N1CCCC(c2ccn[nH]2)C1 (configuration not stated),-9.882
CN(Cc1ccco1)C(=O)CN1CCCC(Cn2cncn2)C1 (configuration not stated),1.657
CCSc1ncc(CN(Cc2cnn(C)c2)CC(C)C)cn1,-4.631
CN1CC2(CCN(Cc3cccnc3)CC2)c2cccc(F)c21,-0.183

Repeated from the top, 8 entries:

| structure | Percent Effect |
|---|---|
| `COc1ccc(OC)c(S(=O)(=O)NC(=O)C(C)OC)c1` (configuration not stated) | 4.844 |
| `CCCSCC(=O)N1C[C@H]2CC[C@@H]1CN(Cc1cccnc1)C2` | 1.308 |
| `CCn1cnnc1CNC(=O)N(C)Cc1c(F)cccc1Cl` | 1.168 |
| `CCc1[nH]ncc1C(=O)N1CCCC(n2cc(C)cn2)C1` (configuration not stated) | 8.566 |
| `CCc1c(C)[nH]c(C(C)(C)N)nc1=O` | -0.4955 |
| `COC(CNC(=O)c1ccc(NC(C)=O)cc1)c1cccc(Cl)c1` (configuration not stated) | -2.385 |
| `Cc1nn(C(C)C)c2cnn(CC(=O)N3CCSCC3)c12` | -3.876 |
| `O=C(c1cccnc1O)N1CCC(COc2ccccc2)CC1` | -0.6192 |